# Laboratory results from the supplement of paper PMC4635364.
# Structures can show the parent of a compound that is named as a salt. The list shows a part of the results. This data set is noisy: repeats of one test often differ as much as different tests do.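 ReNCell VM, a human fetal ventral-midbrain neural progenitor line, was differentiated without mitogens. Blinded raters scored images stained for doublecortin (early neurons) or tyrosine hydroxylase (dopaminergic neurons) against untreated wells (0 = no change). Scores were averaged across repeats and both raters, and compounds averaging 2 or more were selected as hits for retesting.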
# Legend:
# ReNCell VM [1] = assay: neuronal differentiation score (DCX+ cell fraction vs untreated, manual image score) (score (-3 to 3)); higher = more neuronal differentiation; details: 2 uM, 2 weeks
# ReNCell VM [2] = assay: dopaminergic neuron differentiation score (TH+ cell fraction vs untreated, manual image score) (score (0 to 3)); higher = more TH+ dopaminergic neuron differentiation; details: 2 uM, 4 weeks, BDNF 10 ng/ml + GDNF 10 ng/ml
smiles,measurement,setting,value
O=C(O)[C@H](O)[C@@](O)(Cc1ccc(O)cc1)C(=O)O,neuronal differentiation score,ReNCell VM [1]; library: Spectrum,inactive: 0
same,dopaminergic neuron differentiation score,ReNCell VM [2]; library: Spectrum,inactive: 0
CC(C)c1ccc2oc3nc(N)c(C(=O)O)cc3c(=O)c2c1,neuronal differentiation score,ReNCell VM [1]; library: Spectrum,inactive: 0
same,dopaminergic neuron differentiation score,ReNCell VM [2]; library: Spectrum,inactive: 0
CC12CCC3C(CC3(C)C)C(C)(CCC1=O)O2 (centres undefined),neuronal differentiation score,ReNCell VM [1]; library: Spectrum,inactive: 0
same,dopaminergic neuron differentiation score,ReNCell VM [2]; library: Spectrum,inactive: 0
CC(=O)O[C@H]1Cc2ccccc2N(C(N)=O)c2ccccc21,neuronal differentiation score,ReNCell VM [1]; library: LOPAC,inactive: 0
same,dopaminergic neuron differentiation score,ReNCell VM [2]; library: LOPAC,inactive: 0
O=C1CC(c2ccc(O)cc2)Oc2ccccc21 (centres undefined),neuronal differentiation score,ReNCell VM [1]; library: Spectrum,inactive: 0
same,dopaminergic neuron differentiation score,ReNCell VM [2]; library: Spectrum,inactive: 0
CN1CCc2ccccc2Cc2[nH]c3ccccc3c2CC1,neuronal differentiation score,ReNCell VM [1]; library: LOPAC,inactive: 1
same,dopaminergic neuron differentiation score,ReNCell VM [2]; library: LOPAC,inactive: 0
CN(C)/N=N/c1[nH]cnc1C(N)=O [Dacarbazine],neuronal differentiation score,ReNCell VM [1]; library: Prestwick,inactive: 0
same,dopaminergic neuron differentiation score,ReNCell VM [2]; library: Prestwick,inactive: 0
O=C(O)CCCCC(=O)O,neuronal differentiation score,ReNCell VM [1]; library: Spectrum,inactive: 0
same,dopaminergic neuron differentiation score,ReNCell VM [2]; library: Spectrum,inactive: 0
CC(C)Cn1cnc2c(N)nc3ccccc3c21,neuronal differentiation score,ReNCell VM [1]; library: Spectrum,inactive: 0
same,dopaminergic neuron differentiation score,ReNCell VM [2]; library: Spectrum,inactive: 0
CCCn1c(=O)c2[nH]c(-c3ccc(OCC(=O)Nc4ccc(C#N)cc4)cc3)nc2n(CCC)c1=O,neuronal differentiation score,ReNCell VM [1]; library: LOPAC,inactive: 0
same,dopaminergic neuron differentiation score,ReNCell VM [2]; library: LOPAC,inactive: 0
CC(C)NCC(O)COc1ccc(CC(N)=O)cc1 (centres undefined),neuronal differentiation score,ReNCell VM [1]; library: Spectrum,inactive: 0
same,dopaminergic neuron differentiation score,ReNCell VM [2]; library: Spectrum,inactive: 0
CC(C)(C)NC[C@H](O)COc1cccc2c1CCCC2=O,neuronal differentiation score,ReNCell VM [1]; library: Spectrum,inactive: 0
same,dopaminergic neuron differentiation score,ReNCell VM [2]; library: Spectrum,inactive: 0
O=C(O)c1cc(O)c2c(c1)[C@@H]([C@H]1c3cc(C(=O)O)cc(O)c3C(=O)c3c(O[C@@H]4O[C@H](CO)[C@@H](O)[C@H](O)[C@H]4O)cccc31)c1cccc(O[C@@H]3O[C@H](CO)[C@@H](O)[C@H](O)[C@H]3O)c1C2=O,neuronal differentiation score,ReNCell VM [1]; library: Spectrum,inactive: 0
same,dopaminergic neuron differentiation score,ReNCell VM [2]; library: Spectrum,inactive: 0
Nc1ccc(S(N)(=O)=O)cc1,neuronal differentiation score,ReNCell VM [1]; library: Spectrum,inactive: 0
same,dopaminergic neuron differentiation score,ReNCell VM [2]; library: Spectrum,inactive: 0
CCCCCCCCCCCCCCSCC(=O)O [Tetradecylthioacetic acid],neuronal differentiation score,ReNCell VM [1]; library: LOPAC,inactive: 0
same,dopaminergic neuron differentiation score,ReNCell VM [2]; library: LOPAC,inactive: 0
N[C@H](C(=O)O)c1ccc(C(=O)O)c(O)c1 [(S)-4-Carboxy-3-hydroxyphenylglycine],neuronal differentiation score,ReNCell VM [1]; library: Tocriscreen,inactive: 0
same,dopaminergic neuron differentiation score,ReNCell VM [2]; library: Tocriscreen,inactive: 0
C[C@H]1CC[C@@H](C(C)(C)O)CC2=C1CC[C@@H]2C [guaiol],neuronal differentiation score,ReNCell VM [1]; library: Natural,inactive: 0
same,dopaminergic neuron differentiation score,ReNCell VM [2]; library: Natural,inactive: 0
CC(C(=O)O)c1ccc(-c2ccccc2)c(F)c1 (centres undefined),neuronal differentiation score,ReNCell VM [1]; library: Spectrum,inactive: 0
same,dopaminergic neuron differentiation score,ReNCell VM [2]; library: Spectrum,inactive: 0
CCCCC(CC)CCC(CC(C)C)OS(=O)(=O)O (centres undefined),neuronal differentiation score,ReNCell VM [1]; library: Spectrum,inactive: 0
same,dopaminergic neuron differentiation score,ReNCell VM [2]; library: Spectrum,inactive: 0
CCN1CCC[C@H]1CNC(=O)c1c(O)c(Cl)cc(Cl)c1OC [S(+)-Raclopride L-tartrate],neuronal differentiation score,ReNCell VM [1]; library: LOPAC,inactive: 0
same,dopaminergic neuron differentiation score,ReNCell VM [2]; library: LOPAC,inactive: 0
CC(=O)O[C@]1(C(C)=O)CC[C@H]2[C@@H]3C=C(C)C4=CC(=O)CC[C@@H]4[C@H]3CC[C@@]21C [Nomegestrol acetate],neuronal differentiation score,ReNCell VM [1]; library: Prestwick,inactive: 0
same,dopaminergic neuron differentiation score,ReNCell VM [2]; library: Prestwick,inactive: 0
c1ccc2c(c1)CN1CCCC1=N2,neuronal differentiation score,ReNCell VM [1]; library: Spectrum,inactive: 0
same,dopaminergic neuron differentiation score,ReNCell VM [2]; library: Spectrum,inactive: 0
CCCC1C(=O)N2C(N(C)C)=Nc3ccc(C)cc3N2C1=O (centres undefined) [Azapropazone],neuronal differentiation score,ReNCell VM [1]; library: Prestwick,inactive: 0
same,dopaminergic neuron differentiation score,ReNCell VM [2]; library: Prestwick,inactive: 0
CN(C)CC(c1ccc(O)cc1)C1(O)CCCCC1 (centres undefined),neuronal differentiation score,ReNCell VM [1]; library: Spectrum,inactive: -1
same,dopaminergic neuron differentiation score,ReNCell VM [2]; library: Spectrum,inactive: 0
Cc1nc(N=Nc2ccc(S(=O)(=O)O)cc2S(=O)(=O)O)c(COP(=O)(O)O)c(C=O)c1O,neuronal differentiation score,ReNCell VM [1]; library: LOPAC,inactive: 1
same,dopaminergic neuron differentiation score,ReNCell VM [2]; library: LOPAC,inactive: 0
O=C(O)c1ccc(NC2OC[C@@H](O)[C@H](O)[C@H]2O)cc1 (some centres undefined) [benaxibine],neuronal differentiation score,ReNCell VM [1]; library: Natural,inactive: -1
same,dopaminergic neuron differentiation score,ReNCell VM [2]; library: Natural,inactive: 0
"Cc1cn2c(=O)c3ccccc3nc2n2c(=O)c3ccccc3nc12 [6-methyl-5,7a,13,13b-tetraaza-pentaphene-8,14-dione]",neuronal differentiation score,ReNCell VM [1]; library: Natural,inactive: 1
same,dopaminergic neuron differentiation score,ReNCell VM [2]; library: Natural,inactive: 0
COc1c2occc2c(OC)c2c(=O)cc(C)oc12 [Khelline],neuronal differentiation score,ReNCell VM [1]; library: Phytochemical,inactive: 0
same,dopaminergic neuron differentiation score,ReNCell VM [2]; library: Phytochemical,inactive: 0
O=c1cc(-c2ccc(O)cc2)oc2c([C@@H]3O[C@H](CO)[C@@H](O)[C@H](O)[C@H]3O)c(O)cc(O)c12 [Vitexin],neuronal differentiation score,ReNCell VM [1]; library: Phytochemical,inactive: 0
same,dopaminergic neuron differentiation score,ReNCell VM [2]; library: Phytochemical,inactive: 0
Oc1cccc(O)c1,neuronal differentiation score,ReNCell VM [1]; library: Spectrum,inactive: -1
same,dopaminergic neuron differentiation score,ReNCell VM [2]; library: Spectrum,inactive: 0
COc1cc(CNC(=O)CCCCCCC(C)C)ccc1O [Dihydrocapsaicin],neuronal differentiation score,ReNCell VM [1]; library: LOPAC,inactive: 0
same,dopaminergic neuron differentiation score,ReNCell VM [2]; library: LOPAC,inactive: 0
CC12CC3CC(C)(C1)CC(N)(C3)C2,neuronal differentiation score,ReNCell VM [1]; library: Spectrum,inactive: 0
same,dopaminergic neuron differentiation score,ReNCell VM [2]; library: Spectrum,inactive: 0
Cc1cc(=O)oc2cc(O)ccc12,neuronal differentiation score,ReNCell VM [1]; library: Spectrum,inactive: 0
same,dopaminergic neuron differentiation score,ReNCell VM [2]; library: Spectrum,inactive: 0
N#Cc1ccc(C(c2ccc(C#N)cc2)n2cncn2)cc1,neuronal differentiation score,ReNCell VM [1]; library: Spectrum,inactive: 0
same,dopaminergic neuron differentiation score,ReNCell VM [2]; library: Spectrum,inactive: 0
CC(C)Oc1ccc2c(=O)c(-c3ccccc3)coc2c1,neuronal differentiation score,ReNCell VM [1]; library: Spectrum,inactive: 0
same,dopaminergic neuron differentiation score,ReNCell VM [2]; library: Spectrum,inactive: 0
CCOC(=O)[C@@](C)(N)Cc1ccc(O)c(O)c1 [Methyldopate hydrochloride],neuronal differentiation score,ReNCell VM [1]; library: Prestwick,inactive: 0
same,dopaminergic neuron differentiation score,ReNCell VM [2]; library: Prestwick,inactive: 0
CC(=O)O[C@H]1CC[C@]2(C)[C@H]3CC=C4[C@@H]5CC(C)(C)CC[C@]5(C)CC[C@@]4(C)[C@]3(C)CC[C@H]2C1(C)C [beta-AMYRIN ACETATE],neuronal differentiation score,ReNCell VM [1]; library: Spectrum,inactive: 0
same,dopaminergic neuron differentiation score,ReNCell VM [2]; library: Spectrum,inactive: 0

# Quoted from above for reference:
smiles,measurement,setting,value
COc1c2occc2c(OC)c2c(=O)cc(C)oc12 [Khelline],dopaminergic neuron differentiation score,ReNCell VM [2]; library: Phytochemical,inactive: 0
O=c1cc(-c2ccc(O)cc2)oc2c([C@@H]3O[C@H](CO)[C@@H](O)[C@H](O)[C@H]3O)c(O)cc(O)c12 [Vitexin],neuronal differentiation score,ReNCell VM [1]; library: Phytochemical,inactive: 0
same,dopaminergic neuron differentiation score,ReNCell VM [2]; library: Phytochemical,inactive: 0
Oc1cccc(O)c1,neuronal differentiation score,ReNCell VM [1]; library: Spectrum,inactive: -1
same,dopaminergic neuron differentiation score,ReNCell VM [2]; library: Spectrum,inactive: 0
